In article PMC5137149:
These are yes or no findings as the source states them, for the method shown. In cells and extracts the contact can be indirect. Binding can be weak; no strength is given.

Chains of the proteins cited; added tags and fusions are not shown.
UniProt Q62940: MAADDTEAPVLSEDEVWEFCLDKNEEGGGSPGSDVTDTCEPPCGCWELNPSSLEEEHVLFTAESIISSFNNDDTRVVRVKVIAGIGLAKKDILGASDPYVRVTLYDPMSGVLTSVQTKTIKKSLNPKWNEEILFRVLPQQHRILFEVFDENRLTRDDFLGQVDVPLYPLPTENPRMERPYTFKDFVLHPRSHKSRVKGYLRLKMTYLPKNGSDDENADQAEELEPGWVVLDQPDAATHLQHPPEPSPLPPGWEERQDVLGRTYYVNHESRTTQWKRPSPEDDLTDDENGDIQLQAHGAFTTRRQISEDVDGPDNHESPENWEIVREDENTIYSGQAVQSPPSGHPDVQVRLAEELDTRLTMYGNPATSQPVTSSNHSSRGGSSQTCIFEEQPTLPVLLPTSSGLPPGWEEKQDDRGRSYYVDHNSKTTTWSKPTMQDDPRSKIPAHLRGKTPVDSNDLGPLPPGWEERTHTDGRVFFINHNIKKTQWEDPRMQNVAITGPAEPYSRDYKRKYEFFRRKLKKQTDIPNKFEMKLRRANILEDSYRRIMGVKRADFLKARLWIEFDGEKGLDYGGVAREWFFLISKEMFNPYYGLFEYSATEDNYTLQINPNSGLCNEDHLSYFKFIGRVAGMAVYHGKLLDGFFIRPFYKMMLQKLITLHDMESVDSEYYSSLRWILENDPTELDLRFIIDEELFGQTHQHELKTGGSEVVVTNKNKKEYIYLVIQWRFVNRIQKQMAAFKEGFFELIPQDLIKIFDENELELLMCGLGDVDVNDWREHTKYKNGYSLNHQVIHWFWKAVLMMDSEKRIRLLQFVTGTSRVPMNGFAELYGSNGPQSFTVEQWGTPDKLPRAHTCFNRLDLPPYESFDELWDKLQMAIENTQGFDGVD

Molecular target: FLAG-tagged PPARγ2 ∆PPYY mutant (PPYY-sequence-deleted) (UniProt P37238)
Assay: co-IP; HEK293 cells transiently co-expressing T7-tagged NEDD4 and FLAG-tagged PPARγ2 or its PPxY mutants; immunoprecipitated with anti-PPARγ antibody (rabbit clone T.647.5 in Fig. 1C, mouse anti-PPARγ in Fig. 2B,C); 25 mM Tris-HCl, 150 mM NaCl, 1% NP-40

Substance: T7-tagged NEDD4 (rat, wild type; pRc-CMV-T7-NEDD4) (from UniProt Q62940 1-887) (enzyme)
- binding: binds
